The assay has as its target recombinant Irga6-T108D (bacterially expressed) (mouse) (UniProt Q9QZ85). Put plainly: light scattering; GTP-dependent oligomerisation of recombinant Irga6 monitored by conventional light scattering, as described earlier (ref. 16); both purified.

These are yes or no findings as the source states them, for the method shown. Some binding calls cover weakened binding; strength is not graded here.

B1: recombinant Irga6-T108D (bacterially expressed) (protein, UniProt Q9QZ85 1-413)
chain: MGQLFSSPKSDENNDLPSSFTGYFKKFNTGRKIISQEILNLIELRMRKGNIQLTNSAISDALKEIDSSVLNVAVTGETGSGKSSFINTLRGIGNEEEGAAKTGVVEVDMERHPYKHPNIPNVVFWDLPGIGSTNFPPNTYLEKMKFYEYDFFIIISATRFKKNDIDIAKAISMMKKEFYFVRTKVDSDITNEADGKPQTFDKEKVLQDIRLNCVNTFRENGIAEPPIFLLSNKNVCHYDFPVLMDKLISDLPIYKRHNFMVSLPNITDSVIEKKRQFLKQRIWLEGFAADLVNIIPSLTFLLDSDLETLKKSMKFYRTVFGVDETSLQRLARDWEIEVDQVEAMIKSPAVFKPTDEETIQERLSRYIQEFCLANGYLLPKNSFLKEIFYLKYYFLDMVTEDAKTLLKEICLRN
As for B1, the binding result is listed as “binds weakly”.
